{"source": "PubChem BioAssay AID493014", "about": "(National Center for Advancing Translational Sciences (NCATS), 2011)", "assay": "qHTS Assay to Find Inhibitors of Chronic Active B-Cell Receptor Signaling", "details": "ABC-DLBCL IkBa-CBG/CBR reporter, luminescence ratio (green luciferase fused to IkBa over red control in TMD8 lymphoma cells), 4 h", "outline": "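Compounds up to 46 uM were incubated four hours with TMD8 cells whose green CBG68 luciferase is fused to IkappaBalpha; red CBR luminescence normalised the signal, and concentration-effect curves were fitted to fusion, red and ratio data.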", "key": {"[1]": {"details": "measured here: CBR red luminescence, cell number"}}, "note": "The other results are listed elsewhere or left out. The main result of the screen is listed elsewhere. These columns were measured beside it and carry no call. Compounds called inactive in the main read-out are mostly missing here. Potencies come from curve fits of mixed quality, noted in brackets."}
{"smiles": "COc1ccccc1N1CCN(C/C(O)=C(\\C#N)c2nc(-c3ccccc3)cs2)CC1", "values": [{"measurement": "AC50", "setting": "[1]", "result": "2.31 µM [rising, full curve, poor fit]"}]}
{"smiles": "Cn1c(/N=C/c2c[nH]c3ccccc23)nc2ccccc21", "values": [{"measurement": "AC50", "setting": "[1]", "result": "12.6 µM [falling, partial curve, poor fit]"}]}
{"smiles": "Cc1ccc(NC(=O)CSc2nnc(N)s2)cc1S(=O)(=O)N1CCOCC1", "values": [{"measurement": "AC50", "setting": "[1]", "result": "29.1 µM [rising, partial curve, poor fit]"}]}
{"smiles": "C/C(CC(=O)Nc1ccc(N(C)C)cc1)=N\\NC(=O)c1cnccn1", "values": [{"measurement": "AC50", "setting": "[1]", "result": "20.6 µM [falling, single point]"}]}
{"smiles": "c1ccc(-c2ccc(-c3ccccn3)nn2)nc1", "values": [{"measurement": "AC50", "setting": "[1]", "result": "6.31 µM [falling, partial curve, poor fit]"}]}
{"smiles": "CC#C[C@@H](CC)c1ccc2ccn(C)c2c1", "values": [{"measurement": "AC50", "setting": "[1]", "result": "18.4 µM [rising, single point]"}, {"measurement": "AC50", "setting": "measured here: IkBa-CBG green luminescence", "result": "32.6 µM [falling, partial curve, poor fit]"}]}
{"smiles": "O=C(Nc1ccc([N+](=O)[O-])cc1)Nc1ccc(Cl)cc1F", "values": [{"measurement": "AC50", "setting": "[1]", "result": "1.12 µM [rising, partial curve, poor fit]"}]}
{"smiles": "CSc1nc(O)c(N=Nc2ccc(F)cc2F)c(=O)[nH]1", "values": [{"measurement": "AC50", "setting": "[1]", "result": "7.08 µM [falling, partial curve]"}]}
{"smiles": "O=C(O)CSc1ncnc2sc(-c3ccccc3)cc12", "values": [{"measurement": "AC50", "setting": "[1]", "result": "14.1 µM [falling, partial curve, poor fit]"}]}
{"smiles": "Cc1ccc(-c2ccc(OC(=O)c3ccc(=O)[nH]c3)c(C)c2)cc1", "values": [{"measurement": "AC50", "setting": "[1]", "result": "8.91 µM [rising, partial curve]"}]}
{"smiles": "O=C(Nc1ccc2c(c1)OCCO2)c1cccc(Cl)c1", "values": [{"measurement": "AC50", "setting": "[1]", "result": "11.2 µM [falling, partial curve]"}]}
{"smiles": "CCC(=O)Oc1ccc(C(=O)Nc2ccc3c(c2)C(=O)N(C2CCCCC2)C3=O)cc1", "values": [{"measurement": "AC50", "setting": "[1]", "result": "1.84 µM [rising, full curve, poor fit]"}]}
{"smiles": "O=C(Nc1nnc(Cc2c[nH]c3ccccc23)s1)c1ccc(Cl)cc1Cl", "values": [{"measurement": "AC50", "setting": "[1]", "result": "7.31 µM [falling, single point]"}]}
{"smiles": "Clc1ccc(-n2cccc2CN2CCc3c([nH]c4ccccc34)C2c2ccccn2)nc1", "note": "(centres undefined)", "values": [{"measurement": "AC50", "setting": "[1]", "result": "35.5 µM [falling, single point]"}]}
{"smiles": "O=C1c2cccnc2Nc2ccccc2N1CCCF", "values": [{"measurement": "AC50", "setting": "[1]", "result": "35.5 µM [rising, single point]"}]}
{"smiles": "COC(=O)c1sc(NC(=O)CSc2nnnn2C)nc1C", "values": [{"measurement": "AC50", "setting": "[1]", "result": "35.5 µM [falling, single point]"}]}
{"smiles": "COc1ccc(CCNS(=O)(=O)c2ccc(Cl)cc2)cc1OC", "values": [{"measurement": "AC50", "setting": "[1]", "result": "25.1 µM [rising, partial curve, poor fit]"}]}
{"smiles": "CCOC(=O)c1nn(-c2ccc(F)cc2)c2nc(Nc3ccccc3)cc(=O)n12", "values": [{"measurement": "AC50", "setting": "[1]", "result": "0.206 µM [rising, full curve, poor fit]"}]}
